Test results taken from paper doi:10.1101/355263.
Results are given in words; binding and its absence hold for the method and conditions named. Binding seen in cells or lysates may run through a third protein. Some entries that bind do so weakly or less than the wild type. Where a sequence is shown, tags or fusion partners need not be part of it.

Amino acid sequences for entries named in this document (tags omitted).
UniProt Q8IZH2: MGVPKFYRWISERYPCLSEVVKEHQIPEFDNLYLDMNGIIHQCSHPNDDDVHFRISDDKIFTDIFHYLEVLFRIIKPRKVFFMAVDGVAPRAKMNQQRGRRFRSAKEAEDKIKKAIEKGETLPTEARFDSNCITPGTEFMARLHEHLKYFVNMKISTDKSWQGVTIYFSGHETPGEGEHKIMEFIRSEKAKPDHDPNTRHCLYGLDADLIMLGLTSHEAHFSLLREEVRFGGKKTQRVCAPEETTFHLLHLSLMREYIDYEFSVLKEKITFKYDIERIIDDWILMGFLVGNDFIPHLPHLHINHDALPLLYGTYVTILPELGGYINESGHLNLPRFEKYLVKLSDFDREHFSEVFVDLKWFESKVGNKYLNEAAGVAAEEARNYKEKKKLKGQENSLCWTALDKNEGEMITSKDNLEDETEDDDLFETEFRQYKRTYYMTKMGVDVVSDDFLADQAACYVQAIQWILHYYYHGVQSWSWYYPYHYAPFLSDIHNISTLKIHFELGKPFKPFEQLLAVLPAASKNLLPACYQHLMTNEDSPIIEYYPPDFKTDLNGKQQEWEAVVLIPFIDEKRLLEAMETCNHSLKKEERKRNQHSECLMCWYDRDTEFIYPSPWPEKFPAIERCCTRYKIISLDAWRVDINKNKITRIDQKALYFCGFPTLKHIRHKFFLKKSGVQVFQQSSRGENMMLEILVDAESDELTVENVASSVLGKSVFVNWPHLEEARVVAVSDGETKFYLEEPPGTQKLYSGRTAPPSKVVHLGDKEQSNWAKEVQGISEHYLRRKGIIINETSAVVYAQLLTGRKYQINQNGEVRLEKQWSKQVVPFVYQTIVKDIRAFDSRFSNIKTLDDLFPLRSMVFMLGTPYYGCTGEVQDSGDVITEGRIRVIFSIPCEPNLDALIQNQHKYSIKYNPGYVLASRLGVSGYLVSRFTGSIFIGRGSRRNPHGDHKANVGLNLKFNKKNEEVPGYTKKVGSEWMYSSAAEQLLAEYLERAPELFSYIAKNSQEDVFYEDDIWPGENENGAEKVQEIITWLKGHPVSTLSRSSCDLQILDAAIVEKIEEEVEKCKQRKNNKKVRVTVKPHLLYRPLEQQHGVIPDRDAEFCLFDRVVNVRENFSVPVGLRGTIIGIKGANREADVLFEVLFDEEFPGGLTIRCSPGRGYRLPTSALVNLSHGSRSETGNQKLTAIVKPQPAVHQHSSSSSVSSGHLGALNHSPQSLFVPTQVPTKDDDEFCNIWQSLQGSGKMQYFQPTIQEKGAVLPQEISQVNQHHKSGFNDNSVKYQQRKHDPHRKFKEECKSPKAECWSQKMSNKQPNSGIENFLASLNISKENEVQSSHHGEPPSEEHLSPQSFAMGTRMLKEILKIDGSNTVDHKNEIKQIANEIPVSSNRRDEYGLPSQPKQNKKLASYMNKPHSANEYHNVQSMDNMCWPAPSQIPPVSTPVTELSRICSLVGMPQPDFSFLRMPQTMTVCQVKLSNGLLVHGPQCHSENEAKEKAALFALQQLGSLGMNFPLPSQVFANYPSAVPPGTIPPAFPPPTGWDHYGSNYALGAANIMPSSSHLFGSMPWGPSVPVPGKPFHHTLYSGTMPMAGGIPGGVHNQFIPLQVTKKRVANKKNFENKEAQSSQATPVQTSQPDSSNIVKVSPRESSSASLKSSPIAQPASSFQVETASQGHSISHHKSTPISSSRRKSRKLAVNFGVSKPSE

T1: Flag-tagged IFIT5 (interferon-induced tetratricopeptide repeat 5) (UniProt Q13325)
T1 sequence: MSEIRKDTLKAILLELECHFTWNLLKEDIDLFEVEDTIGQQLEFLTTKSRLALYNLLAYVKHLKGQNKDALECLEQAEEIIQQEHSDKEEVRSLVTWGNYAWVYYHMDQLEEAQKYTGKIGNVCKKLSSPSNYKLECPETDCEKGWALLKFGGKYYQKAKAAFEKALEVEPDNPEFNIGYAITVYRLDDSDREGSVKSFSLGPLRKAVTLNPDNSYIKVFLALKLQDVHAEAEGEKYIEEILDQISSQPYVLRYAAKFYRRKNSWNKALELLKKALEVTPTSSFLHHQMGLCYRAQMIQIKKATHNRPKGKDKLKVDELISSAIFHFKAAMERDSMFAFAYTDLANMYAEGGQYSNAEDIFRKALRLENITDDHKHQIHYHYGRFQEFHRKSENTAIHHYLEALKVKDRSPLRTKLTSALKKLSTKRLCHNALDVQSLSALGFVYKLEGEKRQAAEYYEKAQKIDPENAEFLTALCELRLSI

B1: Flag-tagged IFIT5 (interferon-induced tetratricopeptide repeat 5) (protein, UniProt Q13325 1-482)
chain: MSEIRKDTLKAILLELECHFTWNLLKEDIDLFEVEDTIGQQLEFLTTKSRLALYNLLAYVKHLKGQNKDALECLEQAEEIIQQEHSDKEEVRSLVTWGNYAWVYYHMDQLEEAQKYTGKIGNVCKKLSSPSNYKLECPETDCEKGWALLKFGGKYYQKAKAAFEKALEVEPDNPEFNIGYAITVYRLDDSDREGSVKSFSLGPLRKAVTLNPDNSYIKVFLALKLQDVHAEAEGEKYIEEILDQISSQPYVLRYAAKFYRRKNSWNKALELLKKALEVTPTSSFLHHQMGLCYRAQMIQIKKATHNRPKGKDKLKVDELISSAIFHFKAAMERDSMFAFAYTDLANMYAEGGQYSNAEDIFRKALRLENITDDHKHQIHYHYGRFQEFHRKSENTAIHHYLEALKVKDRSPLRTKLTSALKKLSTKRLCHNALDVQSLSALGFVYKLEGEKRQAAEYYEKAQKIDPENAEFLTALCELRLSI

Legend:
[1] = target: T1, Flag-tagged IFIT5 (interferon-induced tetratricopeptide repeat 5); test: co-IP
[2] = target: XRN1 (human (endogenous in LAPC4)) (UniProt Q8IZH2); test: co-IP

Row | Molecule | binding [1] | binding [2]
1 | XRN1 (from UniProt Q8IZH2 1-1706) (enzyme) | binds | 
2 | B1 |  | binds
